Laboratory results reported in article PMC11545376.
Results are given in words; binding and its absence hold for the method and conditions named. Binding seen in cells or lysates may run through a third protein. Some binding calls cover weakened binding; strength is not graded here.

Protein sequences, listed by entry. Tags and fused reporters are not part of them.
UniProt P01106: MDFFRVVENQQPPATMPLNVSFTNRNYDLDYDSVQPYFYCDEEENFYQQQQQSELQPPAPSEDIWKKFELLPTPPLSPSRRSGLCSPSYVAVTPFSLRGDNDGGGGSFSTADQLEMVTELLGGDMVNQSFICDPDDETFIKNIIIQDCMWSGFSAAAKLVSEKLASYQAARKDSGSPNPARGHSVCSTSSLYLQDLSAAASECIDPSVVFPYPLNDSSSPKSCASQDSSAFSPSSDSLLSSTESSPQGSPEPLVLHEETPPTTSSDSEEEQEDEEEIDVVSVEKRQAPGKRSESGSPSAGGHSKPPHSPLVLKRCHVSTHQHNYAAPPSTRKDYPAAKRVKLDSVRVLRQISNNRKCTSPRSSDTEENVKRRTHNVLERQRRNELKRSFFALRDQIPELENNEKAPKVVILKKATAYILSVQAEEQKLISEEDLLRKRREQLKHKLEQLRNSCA

Target: T1, Ubiquitin-specific protease 1 (UniProt O94782)
T1 sequence: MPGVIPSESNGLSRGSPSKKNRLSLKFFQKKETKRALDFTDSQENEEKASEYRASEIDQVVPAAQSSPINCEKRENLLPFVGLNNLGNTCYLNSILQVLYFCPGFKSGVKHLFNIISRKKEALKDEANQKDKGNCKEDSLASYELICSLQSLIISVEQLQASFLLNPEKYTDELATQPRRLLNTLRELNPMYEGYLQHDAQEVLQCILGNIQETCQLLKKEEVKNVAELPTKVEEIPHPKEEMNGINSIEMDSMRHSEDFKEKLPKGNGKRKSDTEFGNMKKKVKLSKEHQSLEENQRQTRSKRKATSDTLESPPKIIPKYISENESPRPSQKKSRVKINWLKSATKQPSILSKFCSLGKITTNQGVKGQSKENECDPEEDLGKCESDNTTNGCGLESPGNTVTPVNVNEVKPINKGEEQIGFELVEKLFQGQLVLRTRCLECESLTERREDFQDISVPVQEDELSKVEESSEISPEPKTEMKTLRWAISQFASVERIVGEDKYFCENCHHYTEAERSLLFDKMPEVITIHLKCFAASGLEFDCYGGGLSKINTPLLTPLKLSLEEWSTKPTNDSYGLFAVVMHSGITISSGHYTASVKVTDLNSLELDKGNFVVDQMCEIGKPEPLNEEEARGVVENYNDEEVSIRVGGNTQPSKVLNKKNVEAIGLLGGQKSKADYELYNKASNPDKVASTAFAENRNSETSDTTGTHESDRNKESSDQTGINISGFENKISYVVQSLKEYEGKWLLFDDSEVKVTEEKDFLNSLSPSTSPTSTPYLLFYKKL
Experiment: co-IP; HEK293 cells lysed in NP-40 lysis buffer (20 mM Tris-HCl pH 7.4, 150 mM NaCl, 1% NP-40) with protease inhibitor cocktail; supernatant incubated with the indicated antibodies and protein A/G magarose beads overnight at 4 °C; beads washed 3 times with lysis buffer; detection by Western …

binding: binds
Substance: c-MYC (from UniProt P01106 1-454)
